{
  "source": "paper PMC2951065",
  "about": "(Journal of Medicinal Chemistry, 2010)",
  "experiment": "Precipitation in cell culture medium",
  "format": "physicochemical",
  "data": [
    {"smiles": "Cc1cc(/N=N/c2ccc(/N=N/c3ccc(O)c(C(=O)O)c3)cc2)c(N)cc1N", "note": "[Compound 13, 1,3-[[4-(2,4-diamino-5-methylphenyl)diazenylphenyl]hydrazinylidene]-6-oxocyclohexa-1,4-diene-1-carboxylic acid]", "values": [
      {"measurement": "concentration at which compound tends to precipitate in the cell culture medium", "result": "> 300", "unit": "µM"}
    ]}
  ]
}
